From PubChem BioAssay AID2718 (Broad Institute, 2010)
Out of some 320,000 compounds screened, about 480 (0.15%) were called active. The shares of active, inactive and inconclusive entries below differ from those in the screen. Rule as the data show it: active = inhibition above about 26% (passing the limit was not always enough); inconclusive = no clear call, values can overlap the other calls.

Sequences of proteins named here, by UniProt entry; tags and fusion partners are left off.
UniProt O15379, whole entry, looked up: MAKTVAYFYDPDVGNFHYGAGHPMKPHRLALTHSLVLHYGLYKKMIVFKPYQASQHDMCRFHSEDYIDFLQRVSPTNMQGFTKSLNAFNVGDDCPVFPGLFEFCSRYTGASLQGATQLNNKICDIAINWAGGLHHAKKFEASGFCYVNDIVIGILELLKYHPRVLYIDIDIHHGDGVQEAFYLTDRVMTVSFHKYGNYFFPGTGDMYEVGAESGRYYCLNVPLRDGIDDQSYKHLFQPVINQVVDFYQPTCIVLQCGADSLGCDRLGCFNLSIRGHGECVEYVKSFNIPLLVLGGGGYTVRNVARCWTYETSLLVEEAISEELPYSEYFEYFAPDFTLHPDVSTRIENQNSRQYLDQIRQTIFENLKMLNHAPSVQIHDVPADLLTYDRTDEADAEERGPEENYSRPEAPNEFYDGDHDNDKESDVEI

molecular target: Histone deacetylase 3 (Homo sapiens) (UniProt O15379); assay: HDAC3 deacetylase inhibitors, primary screen, biochemical, fluorescence, cell-free homogeneous (AID 2718); details: recombinant HDAC3, fluorogenic peptide/trypsin coupled, at 8.3 µM, hits give high values

| Structure (SMILES) | inhibition |
| --- | --- |
| CCN1CCN(c2ccc([N+](=O)[O-])cc2S(=O)(=O)N2CCOCC2)CC1 | inconclusive: 19.4% |
| CC(=O)Nc1ccc2nc(NC(=O)c3cccs3)sc2c1 | inactive: 6.18% |
| O=C1CCCN1CC(O)CS(=O)(=O)c1ccccc1 (stereo not drawn) | inactive: -1.24% |
| CCOc1ccc(NS(=O)(=O)c2ccc(NC(=S)NC(=O)C(C)C)cc2)cc1 | inactive: 15.7% |
| O=c1c2c(ncn2C2CCCC2)n(Cc2ccccc2)c(=O)n1CCOc1ccc(Br)cc1 | inconclusive: 25.2% |
| CCOC(=O)CCCCCC(=O)Nc1ccc2c(c1)CC(=O)N([C@@H](C)CO)C[C@H](C)[C@@H](CN(C)Cc1ccccc1)O2 | inconclusive: 17.1% |
| Cn1c(CSc2nnc(SCc3ccccc3)s2)nc2ccccc21 | inactive: 6.87% |
| CCCn1nc(NS(=O)(=O)c2cccc3nonc23)c2cc3ccccc3nc21 | inactive: -1.24% |
| O=C(O)c1ccc(NC(=S)N2CCCCC2)cc1 | inconclusive: 29.3% |
| C=CCNC(=O)C(=O)NCCOc1ccccc1Cl | inconclusive: 24.5% |
| COc1ccc(C2C(C(N)=O)=C(C)Nc3nc(-c4cccc(Cl)c4)nn32)cc1OC (stereo not drawn) | inconclusive: 33.6% |
| CC[n+]1ccc(/C=C/c2c[nH]c3ccccc23)cc1 | inactive: 9.41% |
| OCC[C@@H]1C[C@@H](O)[C@H](O)[C@@]2(Cc3ccccc3CO2)O1 | inconclusive: 24.1% |
| O=C(CSc1ncn[nH]1)c1cccc([N+](=O)[O-])c1 | inconclusive: 26.1% |
| Cc1ccccc1S(=O)(=O)Cc1ccc(C(=O)NC2CC2)o1 | inconclusive: 10.4% |
| CC12CCC(=O)N1C(C(=O)NNC(=O)COc1ccccc1F)CS2 (stereo not drawn) | inconclusive: 14.4% |
| O=C(Nc1ccc2[nH]ncc2c1)c1ccccc1Br | inconclusive: 22% |
| O=C(NNC(=O)c1ccc(-n2cncn2)c([N+](=O)[O-])c1)c1cccc(Cl)c1 | inactive: 2.83% |
| O=C(Nc1ccc(N2CCN(Cc3ccccc3)CC2)cc1)c1ncn[nH]1 | inconclusive: 24.6% |
| CCN=c1sc(C(=O)NCCc2ccccc2)cc(=O)n1CC | inconclusive: 22.8% |
| Cc1ccc2cc3c(NS(=O)(=O)c4cccc5nonc45)nn(CC(C)C)c3nc2c1 | inconclusive: 28.9% |
| Cc1ccc(-n2c(CCc3ccccc3)nnc2SCC(=O)NCc2ccccc2)cc1C | inconclusive: 19.7% |

Some of the entries so far, with each value named:
CC12CCC(=O)N1C(C(=O)NNC(=O)COc1ccccc1F)CS2 (stereo not drawn)
  inhibition: inconclusive: 14.4%
O=C(Nc1ccc2[nH]ncc2c1)c1ccccc1Br
  inhibition: inconclusive: 22%
O=C(NNC(=O)c1ccc(-n2cncn2)c([N+](=O)[O-])c1)c1cccc(Cl)c1
  inhibition: inactive: 2.83%
O=C(Nc1ccc(N2CCN(Cc3ccccc3)CC2)cc1)c1ncn[nH]1
  inhibition: inconclusive: 24.6%

(next part)

| Structure (SMILES) | inhibition |
| --- | --- |
| CC(C)N(Cc1cnn(C)c1)Cc1nc(Cc2ccccc2Cl)no1 | inconclusive: 10.3% |
| COc1ccc(C(=O)n2nc(-c3ccco3)nc2SC)cc1OC | inconclusive: 22.9% |
| CCc1n[nH]c(=S)n1/N=C/c1cc(Br)c(O)c(OC)c1 | inactive: 11.8% |
| Cc1cc2c(=O)n(Cc3ccco3)c(SCC(=O)c3ccc(Cl)s3)nc2s1 | active: 26.9% |
| COc1ccc(-c2c(C)nn3c(N)c(C#N)cnc23)cc1OC | inconclusive: 16.3% |
| O=C(COC(=O)c1ccc(S(=O)(=O)N2CCCC2)cc1)NCc1ccc(F)cc1 | inconclusive: 26.6% |
| CN(Cc1ccccc1)C1(CNC(=O)CCC(F)(F)F)Cc2ccccc2C1 | inconclusive: 21.9% |
| O=C(CCn1cccn1)N1CCCC(N2CCN(c3cccc(Cl)c3)CC2)C1 (stereo not drawn) | inactive: -3.59% |
| C[C@H]1CN([C@@H](C)CO)C(=O)c2cccc(NS(=O)(=O)c3cn(C)cn3)c2O[C@H]1CN(C)S(C)(=O)=O | inactive: 3.93% |
| O=C(NCC1CCCO1)c1ccc(Oc2ccc([N+](=O)[O-])cc2Cl)cc1 (stereo not drawn) | inconclusive: 17.3% |
| Cc1ccccc1CSc1nnc(C)n1N | inconclusive: 15.4% |
| Cc1ccc(NC(=O)C=NOCC(=O)Nc2cc(C)cc(C)c2)cc1 | inactive: 0.0931% |
| CCCCCCCCCCOC(=O)Cn1c(COc2ccc(C)cc2)[n+](C)c2ccccc21 | active: 36.3% |
| Cc1c(S(=O)(=O)N2CCN(c3ccccc3)CC2)c(=O)n(C)c(=O)n1C | inconclusive: 9.63% |
| Cc1ccc(C(=O)Nc2cccc3cccnc23)cc1C | inactive: -6.39% |
| CC1(C)Cc2c(c(-c3ccccc3)nc3[nH][nH]c(=O)c23)CO1 | inactive: -2.15% |
| S=C1NC2=C(CCCC2=C2SCCS2)C(c2ccccc2)N1 (stereo not drawn) | active: 95% |
| O=C(Cc1ccccc1)NCC(=O)N1CCN(Cc2cccc(Cl)c2)CC1 | inactive: 3.21% |
| Cc1nc2ccc(Br)cc2c(=O)n1Cc1cccs1 | inactive: -6.15% |
| C=CCNCC(=O)Nc1sc2c(c1C(=O)Nc1ccc(OC)cc1OC)CCC2 | inconclusive: 8.83% |
| O=C(O)CSc1c(O)c2ccccc2[nH]c1=O | inconclusive: 11.7% |
| Cc1ccc(S(=O)(=O)Nc2cccc3ncccc23)s1 | inconclusive: 19% |

A draw from above in order of SMILES length, largest number first.

| Structure (SMILES) | inhibition |
| --- | --- |
| CCCCCCCCCCOC(=O)Cn1c(COc2ccc(C)cc2)[n+](C)c2ccccc21 | active: 36.3% |
| Cc1ccc(NC(=O)C=NOCC(=O)Nc2cc(C)cc(C)c2)cc1 | inactive: 0.0931% |
| CC(C)N(Cc1cnn(C)c1)Cc1nc(Cc2ccccc2Cl)no1 | inconclusive: 10.3% |

Next results:

| Structure (SMILES) | inhibition |
| --- | --- |
| NS(=O)(=O)c1ccc(NC(=O)CN2CCCc3ccccc32)cc1 | inconclusive: 25% |
| CCOC(CCn1ccc(O)c(Cc2ccc(Cl)cc2)c1=O)OCC | inactive: -1.32% |
| CSc1nnc(-c2nnc(SC)n2-c2ccccc2)n1-c1ccccc1 | inconclusive: 28% |
| COc1ccc(C2C(C(=O)NCc3cccnc3)c3cc(OC)c(OC)cc3C(=O)N2C)cc1 (stereo not drawn) | inconclusive: 19.4% |
| CC(C)CC1Nc2ncnc(N3CCN(c4ccccc4)CC3)c2N(Cc2ccc(Br)cc2)C1=O (stereo not drawn) | inconclusive: 14.8% |
| COc1ccc(C(CC(=O)c2ccccc2)CC(=O)c2ccccc2)cc1 | inconclusive: 16.5% |
| O=C(C1=C[C@H](c2ccc(C(F)(F)F)cc2)C[C@H](OCc2ccc(CO)cc2)O1)N1CCCCCCC1 | inconclusive: 28.2% |
| O=C(NC1CCCCCC1)c1ccc2nc3cc(Cl)ccc3c(=O)n2c1 | inactive: 2.68% |
| COC(=O)Nc1ccc(C)c(NC(=O)OC)c1 | inconclusive: 13.3% |
| O=C1C=C(NC(=O)Nc2ccc(Cl)c(Cl)c2)CCC1 | inconclusive: 21.9% |
| Cc1cc(C)n(CCCNC(=O)C2CC(=O)N(Cc3ccccc3)C2)n1 (stereo not drawn) | inconclusive: 15.3% |
| Cc1cc(=S)[nH]c2ccccc12 | inactive: 2.02% |
| COc1ccc(/C=N/NC(=O)c2ccc(N)cc2)cc1Cn1cc([N+](=O)[O-])cn1 | inactive: 7.46% |
| O=C(CN1C(=O)c2cccc3cccc1c23)N1CCc2ccccc2C1 | inactive: 0.113% |
| O=[N+]([O-])c1ccccc1/C=N/n1c(-c2cccnc2)n[nH]c1=S | inconclusive: 17.2% |
| COc1ccc2[nH]c(=O)c(C(c3nnnn3CC3CCCO3)N3CCCCC3)cc2c1 (stereo not drawn) | inconclusive: 16.5% |
| O=C(Nc1ccc(NC(=O)c2ccco2)cc1)c1ccc2c(c1)OCCO2 | inconclusive: 22.6% |
| CC(C(=O)N1CCOCC1)c1ccccc1 (stereo not drawn) | inactive: -0.0648% |
| Cc1ccccc1CS(=O)(=O)c1nnc([C@H](CC(C)C)NC(=O)OC(C)(C)C)o1 | active: 38.1% |
| CN(C)c1ccc(C(=O)n2nnc3ccccc32)cc1 | active: 90.6% |
| N=C1SC(CC(=O)Nc2ccc([N+](=O)[O-])cc2)C(=O)N1c1ccccc1 (stereo not drawn) | inactive: 0.876% |
| Cc1ccc(S(=O)(=O)NCCCN2CCOCC2)cc1C | inconclusive: 14.8% |

| Structure (SMILES) | inhibition |
| --- | --- |
| Cc1c(C(=O)N2CCN(CC(=O)Nc3ccccc3Cl)CC2)oc2ccc(Br)cc12 | inconclusive: 40.8% |
| C#CCOCCOCCOCCNc1nc(N2CCN(C(=O)CCCCCCCCCCNC(=O)[C@H]([C@@H](C)CC)n3cc(CCCCN=C(N)N)nn3)CC2)nc(N2CCN(C(=O)CCCCCCCCCCNC(=O)[C@H]([C@@H](C)CC)n3cc(CCCCN=C(N)N)nn3)CC2)n1 | inconclusive: 53.5% |
| Nc1nonc1-n1nnc(C(=O)N/N=C/c2cccnc2)c1CSc1ccccc1 | inconclusive: 14.1% |
| OCCN1CCN(CC(O)COc2ccc3c(c2)OCO3)CC1 (stereo not drawn) | inactive: -2.05% |
| CCOC(=O)C1(CCCc2ccccc2)CCN(C(=O)c2cc(C)nc(C)n2)CC1 | inconclusive: 38.3% |
| C=CCN1CC(c2nc3ccccc3n2Cc2cccc3ccccc23)CC1=O (stereo not drawn) | inconclusive: 29.9% |
| CCN(CC)S(=O)(=O)c1ccc(N2CCOCC2)c(NC(=O)c2cc(=O)[nH]c3ccccc23)c1 | inconclusive: 20.1% |
| O=S(=O)(NCc1ccc(F)cc1)c1ccc(-c2cnc(C3CC3)o2)cc1 | inactive: -7.13% |
| O=C(Oc1cccnc1)c1cc(S(=O)(=O)N2CCCCC2)ccc1Cl | inactive: -3.99% |
| O=C(COc1ccc([N+](=O)[O-])cc1)Nc1ccc(N2CCCC2)cc1 | active: 54.5% |
| COc1cc(OC)c(OC)cc1C#N | inactive: -3.4% |
| COc1ccc(/C=N/NC(=O)CCn2c3ccccc3c3ccccc32)cc1OC | inconclusive: 22.6% |
| CCOC(=O)C1=C(O)/C(=C/c2ccc(OCC(=O)O)c(OCC)c2)SC1=Nc1ccc(OC)cc1 | inactive: 5.58% |
| Oc1ccc(N=Cc2sc3ccccc3c2Cl)cc1 | inconclusive: 17% |
| CCCCn1c(-c2csc(CCC)c2)n[nH]c1=S | inactive: 3.19% |
| Cn1nnc(NC(=O)COc2ccc(C3CCCCC3)cc2)n1 | inconclusive: 19.2% |
| Cc1ccc(/C=N/NC(=O)CSc2nc3ccccc3n2Cc2ccc(Cl)cc2)o1 | inconclusive: 25.6% |
| CC(CCl)OC(C)CCl (stereo not drawn) | inconclusive: 13.5% |
| COc1cccc(/C=N/Nc2ccc(C(=O)O)cc2)c1O | inconclusive: 14.1% |
| CC1(C)CCCC2=C1CC1C(=O)N(Cc3cccnc3)C(=O)C1C2 (stereo not drawn) | inactive: 1.35% |
| CSc1nc2c(C)c(C)c(C)c(C)c2[nH]1 | inactive: 2.17% |
| N/C(Cn1cncn1)=N\NC(=O)C(=O)Nc1ccc(Cl)cc1Cl | inconclusive: 20.1% |
